Measurements taken from patent publication US20030167129A1, “Binding compounds and methods for identifying binding compounds” (priority 2000, published 2003).
These are yes or no findings as the source states them, for the method shown. Some binding calls cover weakened binding; strength is not graded here.

Protein sequences, listed by entry. Tags and fused reporters are not part of them.
UniProt P61073: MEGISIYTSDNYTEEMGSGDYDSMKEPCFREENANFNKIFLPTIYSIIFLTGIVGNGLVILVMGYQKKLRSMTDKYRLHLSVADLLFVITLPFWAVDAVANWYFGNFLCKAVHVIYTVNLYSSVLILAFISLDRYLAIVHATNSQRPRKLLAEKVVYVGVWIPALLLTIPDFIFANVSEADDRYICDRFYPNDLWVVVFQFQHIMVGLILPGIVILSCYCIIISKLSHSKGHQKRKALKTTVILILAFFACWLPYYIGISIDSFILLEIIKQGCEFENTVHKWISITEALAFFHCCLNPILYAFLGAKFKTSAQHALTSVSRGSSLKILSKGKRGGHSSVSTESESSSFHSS

target: CXCR4-GST (human) (UniProt P61073); assay: phage display (NEB PhD C7C) on immobilized functional CXCR4, elution with SDF1α or glycine pH 2.2

**Q.** PAHYPML [Phage sequence P-A-H-Y-P-M-L] was tested. Which binding did it give?
**A.** binds

**Q.** QYATPNK [Phage sequence Q-Y-A-T-P-N-K] was tested. Which binding did it give?
**A.** binds

**Q.** For QQRSTAF [Phage sequence Q-Q-R-S-T-A-F], which binding is on record?
**A.** binds

**Q.** For PFRATTE [Phage sequence P-F-R-A-T-T-E], which binding is on record?
**A.** binds

**Q.** How did the binding turn out when TDKLLLD [Phage sequence T-D-K-L-L-L-D] was run?
**A.** binds

**Q.** How did the binding turn out when HTQHVRT [Phage sequence H-T-Q-H-V-R-T] was run?
**A.** binds

**Q.** Which binding does the source give for LGVKAPS [Phage sequence L-G-V-K-A-P-S] here?
**A.** binds

**Q.** Which binding does the source give for DLQARYS [Phage sequence D-L-Q-A-R-Y-S] here?
**A.** binds

**Q.** Which binding does the source give for STWPLAQ [Phage sequence S-T-W-P-L-A-Q] here?
**A.** binds

**Q.** With RTTSDAL [Phage sequence R-T-T-S-D-A-L] as the binder, how does the binding read?
**A.** binds
